For 39 compounds, growth results are on record in the supplement of paper PMC8007513.

The structures appear in SMILES notation. The list shows a part of the results. Single values are uncertain, as repeats are few or missing.

The test system of this assay is Saccharomyces cerevisiae BY4743. Description: growth (OD600) with compound + IPBC relative to untreated control; higher = less growth inhibition. Conditions: compound concentration: 133 uM; IPBC concentration: 0.5 ug/ml; 20 h. The procedure:
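NMCCC compounds (133 uM) combined with IPBC (0.5 ug/ml) against Saccharomyces cerevisiae BY4743 in YPD, 96-well plates. Growth was read as OD600 at 20 h and expressed as % of the untreated control. Single pass.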
For the compound `Cc1ccc(S(=O)(=O)CCC(=O)OC(C)C(=O)N(C)c2ccccc2)cc1` (centres undefined) + CCCCNC(=O)OCC#CI [3-iodo-2-propynyl butylcarbamate (IPBC)], the growth was 104%. Regarding `CCOC(=O)c1c(S(=O)(=O)NCC(=O)Nc2nc3ccc(Cl)cc3s2)c(C)n(C)c1C` + CCCCNC(=O)OCC#CI [3-iodo-2-propynyl butylcarbamate (IPBC)], the growth came out at 83.5%. In the case of `CCN(CC(=O)Nc1ccc(C(=O)Nc2ccc(OC)cc2)cc1)Cc1ccc(Cl)s1` + CCCCNC(=O)OCC#CI [3-iodo-2-propynyl butylcarbamate (IPBC)] it was 73.2%. Then `CC1=CC=CC(=C1C)NC(=O)CNC(=O)CN2\N=C(\C(N)=O)C3=CC=CC=C3C2=O` + CCCCNC(=O)OCC#CI [3-iodo-2-propynyl butylcarbamate (IPBC)], with 106%; and `CCC(CC)n1nc(O)c2c(C)cc(C)nc21` + CCCCNC(=O)OCC#CI [3-iodo-2-propynyl butylcarbamate (IPBC)], with 104%.

Regarding `CCOC(=O)C(=O)N1\N=C(/CC1(O)C(C)(C)C)C(F)(F)F` (centres undefined) + CCCCNC(=O)OCC#CI [3-iodo-2-propynyl butylcarbamate (IPBC)], the growth was 92.3%. In the case of `CC/1=C/N2C(=O)\C=C(NC3CC(C)(C)NC(C)(C)C3)/N=C2/C=C1` + CCCCNC(=O)OCC#CI [3-iodo-2-propynyl butylcarbamate (IPBC)], the growth was found to be 99.6%. Consider `COCC(=O)Nc1nc2nc(-c3ccccc3)cc(O)n2n1` + CCCCNC(=O)OCC#CI [3-iodo-2-propynyl butylcarbamate (IPBC)], for which the growth came to 87.2%.

As for `CC(CCc1ccccc1)NC(=O)N(C)Cc1nc(O)c2sccc2n1` (centres undefined) + CCCCNC(=O)OCC#CI [3-iodo-2-propynyl butylcarbamate (IPBC)], the growth amounted to 99.9%. Then `CCOC(=O)c1csc(NC(=O)c2cc(C)oc2C)n1` + CCCCNC(=O)OCC#CI [3-iodo-2-propynyl butylcarbamate (IPBC)], with 100%. For the compound `COc1ccccc1N(CCC(N)=O)C(=O)C1COc2ccccc2O1` (centres undefined) + CCCCNC(=O)OCC#CI [3-iodo-2-propynyl butylcarbamate (IPBC)], the growth was 99.6%. As for `Cc1c(C(=O)NC(C)CCc2ccccc2)oc2c1C(=O)CCC2` (centres undefined) + CCCCNC(=O)OCC#CI [3-iodo-2-propynyl butylcarbamate (IPBC)], the growth turned out to be 99.3%.

For `COc1ccc(Cc2nnc(SCC(N)=O)n2-c2ccccc2)cc1Cl` + CCCCNC(=O)OCC#CI [3-iodo-2-propynyl butylcarbamate (IPBC)], the growth was determined as 102%. In the case of `O=C(Nc1ccc(N2CCCC2)cn1)c1ccc(Cl)cc1` + CCCCNC(=O)OCC#CI [3-iodo-2-propynyl butylcarbamate (IPBC)], the growth was determined as 86.3%.

As to `Cc1nc(C)c(C#N)c(SCc2nc(O)c3cccc(C)c3n2)n1` + CCCCNC(=O)OCC#CI [3-iodo-2-propynyl butylcarbamate (IPBC)], the growth stood at 96.4%. In the case of `COc1ccccc1NC(=O)c1ccc(NC(=O)CSc2ccccn2)cc1` + CCCCNC(=O)OCC#CI [3-iodo-2-propynyl butylcarbamate (IPBC)] it was 104%. As for `CC(C)c1csc(NC(=O)c2cnn(-c3ccccc3)c2)n1` + CCCCNC(=O)OCC#CI [3-iodo-2-propynyl butylcarbamate (IPBC)], the growth came to 106%. As to `CN(C)CCCN(C(=O)c1ccc(Br)s1)c1nc2ccc(F)cc2s1` + CCCCNC(=O)OCC#CI [3-iodo-2-propynyl butylcarbamate (IPBC)], the growth was 4.69%. In the case of `CCCCS(=O)(=O)Nc1cnn(Cc2ccc(F)cc2)c1` + CCCCNC(=O)OCC#CI [3-iodo-2-propynyl butylcarbamate (IPBC)] it was 103%; in that of `CCOC(=O)N1CCN(CC1)C(=O)C2C\C(=N/O2)C3=CC=CC(=C3OC)OC` (centres undefined) + CCCCNC(=O)OCC#CI [3-iodo-2-propynyl butylcarbamate (IPBC)], 109%. In the case of `CC(=O)Nc1ccc(C(=O)CSc2nc3cc(C)ccc3[nH]2)c(F)c1` + CCCCNC(=O)OCC#CI [3-iodo-2-propynyl butylcarbamate (IPBC)], the growth turned out to be 104%. For `COC(=O)C[C@H](NC(=O)N1CCSCC1c1ccc(OC)cc1)C(=O)OC` (some centres undefined) + CCCCNC(=O)OCC#CI [3-iodo-2-propynyl butylcarbamate (IPBC)], the growth stood at 97.9%. In the case of `Cc1ccc(Nc2nc(COC(=O)c3nccnc3N)cs2)cc1` + CCCCNC(=O)OCC#CI [3-iodo-2-propynyl butylcarbamate (IPBC)] it was 102%. Turning to `CC1=CC=CC=C1C(=O)N(C\2C[S](=O)(=O)\C=C2)C3=CC=CC=C3` (centres undefined) + CCCCNC(=O)OCC#CI [3-iodo-2-propynyl butylcarbamate (IPBC)], the growth was 104%. Turning to `COC(=O)CCN1C(=O)\C=C(\C)C2=C[N](C)N=C12` + CCCCNC(=O)OCC#CI [3-iodo-2-propynyl butylcarbamate (IPBC)], the growth worked out at 92.7%. In the case of `CCCC(=O)Nc1nc2cc(NS(=O)(=O)c3cccs3)ccc2s1` + CCCCNC(=O)OCC#CI [3-iodo-2-propynyl butylcarbamate (IPBC)] it was 106%; in that of `COC(=O)COC1=CC=C2C(=O)\C(=C/OC2=C1)OC3=CC=C(C=C3)C(C)(C)C` + CCCCNC(=O)OCC#CI [3-iodo-2-propynyl butylcarbamate (IPBC)], 103%.

With `COC(=O)CN(c1cc(C)cc(C)c1)S(=O)(=O)c1cc2c(cc1C)N(C(C)=O)CCO2` + CCCCNC(=O)OCC#CI [3-iodo-2-propynyl butylcarbamate (IPBC)], the growth is 104%. Turning to `N#Cc1ccsc1NC(=O)CCSc1nnnn1C1CC1` + CCCCNC(=O)OCC#CI [3-iodo-2-propynyl butylcarbamate (IPBC)], the growth came to 93.8%. In the case of `CCc1noc(CSc2nnc3ccc(S(=O)(=O)N(CC)CC)cn23)n1` + CCCCNC(=O)OCC#CI [3-iodo-2-propynyl butylcarbamate (IPBC)] it was 109%; in that of `COC(=O)c1cc(C)nc2c1cnn2-c1ccc(F)cc1` + CCCCNC(=O)OCC#CI [3-iodo-2-propynyl butylcarbamate (IPBC)], 101%; in that of `Cn1cccc1C(=O)NC(=O)CSc1nc2cc(Cl)c[nH]c-2n1` + CCCCNC(=O)OCC#CI [3-iodo-2-propynyl butylcarbamate (IPBC)], 75.2%. With `CCS(=O)(=O)N1Cc2ccccc2CC1C(=O)Nc1ccc(Br)cc1F` (centres undefined) + CCCCNC(=O)OCC#CI [3-iodo-2-propynyl butylcarbamate (IPBC)], the growth stood at 93.4%. Then `CCN1CCC(N(Cc2cccc(OC)c2)C(=O)Nc2cc(F)ccc2F)CC1` + CCCCNC(=O)OCC#CI [3-iodo-2-propynyl butylcarbamate (IPBC)], with 102%; and `CC(=O)Nc1cc(NC(C)=O)cc(C(=O)OC(C)C(=O)N2c3ccccc3NC(=O)C2(C)C)c1` (centres undefined) + CCCCNC(=O)OCC#CI [3-iodo-2-propynyl butylcarbamate (IPBC)], with 93.6%; and `Cc1ccccc1N(C)C(=O)c1cccc2c1SCCC2=O` + CCCCNC(=O)OCC#CI [3-iodo-2-propynyl butylcarbamate (IPBC)], with 104%. Regarding `CCOC(=O)c1sc(NC(=O)c2nc3nccc(C)n3n2)nc1C` + CCCCNC(=O)OCC#CI [3-iodo-2-propynyl butylcarbamate (IPBC)], the growth was determined as 94.1%. As for `CCN(CC)[S](=O)(=O)C1=CC=C(C=C1)C(=O)N\C2=C(/C(C)C)N(C)N(C2=O)C3=CC=CC=C3` + CCCCNC(=O)OCC#CI [3-iodo-2-propynyl butylcarbamate (IPBC)], the growth was found to be 104%. As for `NCCc1c(-c2ccccc2)nn(-c2ccccc2)c1O` + CCCCNC(=O)OCC#CI [3-iodo-2-propynyl butylcarbamate (IPBC)], the growth is 97.5%.
